In patent publication US20150045610A1, “METHOD OF MODIFYING SPERMATOGENESIS, SPERMIOGENESIS AND/OR FERTILITY IN MAMMALS” (Monell Chemical Senses Center, priority 2012, published 2015):
“Also recorded” adds a separate entry of the source. At least one compound was matched to its structure with a doubt left.

The chains behind the UniProt entries cited, without tags or fusion partners. Where a name states a change or a piece, a line headed by the entry shows the natural chain unless it says otherwise.
UniProt Q7RTX0: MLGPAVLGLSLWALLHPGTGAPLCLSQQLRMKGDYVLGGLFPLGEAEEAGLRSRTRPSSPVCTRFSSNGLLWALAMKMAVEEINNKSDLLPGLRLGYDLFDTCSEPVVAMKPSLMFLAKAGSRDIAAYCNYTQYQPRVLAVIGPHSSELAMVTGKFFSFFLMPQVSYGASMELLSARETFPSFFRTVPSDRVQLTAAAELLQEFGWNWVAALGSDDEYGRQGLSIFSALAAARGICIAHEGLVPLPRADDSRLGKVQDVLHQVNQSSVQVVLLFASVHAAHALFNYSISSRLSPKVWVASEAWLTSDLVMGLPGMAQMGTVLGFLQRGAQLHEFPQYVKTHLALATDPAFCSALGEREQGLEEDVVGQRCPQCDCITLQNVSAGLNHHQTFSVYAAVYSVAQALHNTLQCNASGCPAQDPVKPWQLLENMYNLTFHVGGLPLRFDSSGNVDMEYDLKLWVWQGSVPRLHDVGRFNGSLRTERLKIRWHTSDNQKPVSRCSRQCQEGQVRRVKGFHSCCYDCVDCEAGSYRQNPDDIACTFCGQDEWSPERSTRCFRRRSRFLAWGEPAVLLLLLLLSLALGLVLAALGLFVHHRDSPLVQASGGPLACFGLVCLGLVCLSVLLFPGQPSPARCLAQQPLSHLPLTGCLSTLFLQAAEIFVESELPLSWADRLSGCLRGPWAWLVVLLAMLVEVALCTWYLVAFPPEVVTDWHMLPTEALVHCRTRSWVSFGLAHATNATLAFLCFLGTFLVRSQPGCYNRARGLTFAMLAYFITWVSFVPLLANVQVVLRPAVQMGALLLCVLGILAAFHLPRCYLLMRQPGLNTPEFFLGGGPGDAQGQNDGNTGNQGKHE

Biological target: T1, humanized mhT1R3 (Homo sapiens, UniProt Q7RTX0, A109T/A120V/A176D/A197V/A198V/A228S/A231N/A248T/A280V/A282S/A302S/A412V/A417V/A46T/A537T/C375D/D124S/D249S/D250G/D364H/D419E/D470T/D491G/D88A/DEL352-352/DEL488-489/E172D/E199T/E203N/E217D/E356N/E45S/E481Q/E505D/E525K/E545Q/F540P/F555L/G168S/G205S/G311T/G314N/G355L/G360D/G414H/G438R/G439D/G463S/G50T/G542N/H261R/H278R/H281Y/H332P/I485M/I536F/INS376MLQNLSSG/K32Q/K339E/K422L/K494V/K86G/L173R/L245Q/L272V/L29F/L354S/L385Q/L433M/L458M/L483S/L71F/L74M/M151L/M315I/M318V/M31A/N285S/N386L/N532H/N68L/P112S/P246H/P335S/P416H/P420H/P441T/P60I/Q221E/Q257L/Q317R/Q330L/Q336H/Q359L/Q372R/Q418S/Q504K/Q531K/R123Q/R247D/R252Q/R291G/R30K/R357A/R443Q/R467V/R473T/R479Q/R482Q/R486Y/R498Q/R52N/R550K/R553A/R556P/R560K/R56Q/S251Q/S267K/S289H/S290H/S392A/S446A/S447E/S464P/S477T/S490P/S53Q/S559P/S58N/S67P/T195Q/T346A/T377L/T390I/T434S/T480L/T63N/V152I/V277A/V366M/V36I/V381L/V393T/V437A/V465T/V61P/W72L)
T1 construct: the extracellular domain is of mouse origin and the transmembrane and intracellular domains of human origin; mouse T1R3 extracellular domain (fusion partner replacing the human extracellular domain); expressed in transfected cells; host or cells: transgenic Line 7c mice (T1R3-/-, Gus-/-, mhT1R3+/-)
T1 sequence (Q7RTX0 with tags, fused parts or gaps L29F/R30K/M31A/K32Q/V36I/E45S/A46T/G50T/R52N/S53Q/R56Q/S58N/P60I/V61P/T63N/S67P/N68L/L71F/W72L/L74M/K86G/D88A/A109T/P112S/A120V/R123Q/D124S/M151L/V152I/G168S/E172D/L173R/A176D/T195Q/A197V/A198V/E199T/E203N/G205S/E217D/Q221E/A228S/A231N/L245Q/P246H/R247D/A248T/D249S/D250G/S251Q/R252Q/Q257L/H261R/S267K/L272V/V277A/H278R/A280V/H281Y/A282S/N285S/S289H/S290H/R291G/A302S/G311T/G314N/M315I/Q317R/M318V/Q330L/H332P/P335S/Q336H/K339E/T346A/DEL352-352/L354S/G355L/E356N/R357A/Q359L/G360D/D364H/V366M/Q372R/C375D/INS376MLQNLSSG/T377L/V381L/L385Q/N386L/T390I/S392A/V393T/A412V/G414H/P416H/A417V/Q418S/D419E/P420H/K422L/L433M/T434S/V437A/G438R/G439D/P441T/R443Q/S446A/S447E/L458M/G463S/S464P/V465T/R467V/D470T/R473T/S477T/R479Q/T480L/E481Q/R482Q/L483S/I485M/R486Y/DEL488-489/S490P/D491G/K494V/R498Q/Q504K/E505D/E525K/Q531K/N532H/I536F/A537T/F540P/G542N/E545Q/R550K/R553A/F555L/R556P/S559P/R560K limits assumed): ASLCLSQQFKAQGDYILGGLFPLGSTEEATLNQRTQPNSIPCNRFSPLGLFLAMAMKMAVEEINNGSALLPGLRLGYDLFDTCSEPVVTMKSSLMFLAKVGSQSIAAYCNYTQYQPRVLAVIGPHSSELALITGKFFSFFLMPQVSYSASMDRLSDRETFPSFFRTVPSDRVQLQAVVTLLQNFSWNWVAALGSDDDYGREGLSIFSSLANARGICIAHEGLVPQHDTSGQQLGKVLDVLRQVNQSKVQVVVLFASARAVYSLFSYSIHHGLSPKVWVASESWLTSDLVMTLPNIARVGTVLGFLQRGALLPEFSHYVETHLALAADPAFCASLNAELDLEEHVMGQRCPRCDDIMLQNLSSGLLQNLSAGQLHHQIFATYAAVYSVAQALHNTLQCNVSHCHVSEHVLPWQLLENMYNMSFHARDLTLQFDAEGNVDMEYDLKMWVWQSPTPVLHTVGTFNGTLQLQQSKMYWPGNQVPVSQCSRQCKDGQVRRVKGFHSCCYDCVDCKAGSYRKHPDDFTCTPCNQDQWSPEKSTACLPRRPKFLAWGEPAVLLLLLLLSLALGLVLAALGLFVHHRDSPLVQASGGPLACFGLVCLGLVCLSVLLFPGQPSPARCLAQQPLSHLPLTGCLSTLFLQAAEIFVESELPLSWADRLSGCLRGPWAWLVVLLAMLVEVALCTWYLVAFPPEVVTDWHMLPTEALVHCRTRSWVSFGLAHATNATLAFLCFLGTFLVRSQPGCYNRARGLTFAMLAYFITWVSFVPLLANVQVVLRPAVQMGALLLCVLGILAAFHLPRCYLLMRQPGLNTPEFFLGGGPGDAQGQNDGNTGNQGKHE
Assay: T1R3 pharmacological block with clofibrate diet (male reproduction)
Assay type: in vivo, mouse
Conditions: line 7c males on clofibrate diet, mated with WT females
Description: Matched groups (six males each) of WT and line 7c mice (expressing the chimerical mhT1R3 transgene on a T1R3/α-gustducin double-null background), 3-6 months old, were fed the indicated diets for 4-6 weeks. Each genotype was tested in two groups, one on the regular diet and one on a test diet with clofibrate. An additional group of males stayed on the test diet for another 4-6 weeks, during which time they were mated with WT females to determine whether the pharmacological intervention was effective. Then the animals were allowed to recover on the regular diet for an additional 4 weeks after the end of the treatment (half-time for total sperm turnover in mice), and again were tested for their reproductive capacity, and then their tissues were analyzed. The diets were normal chow and normal chow with clofibrate (250 and 500 mg/kg body weight daily). […] As additional controls we treated T1R3-null mice, α-gustducin-null mice, and mice expressing the humanized mhT1R3 receptor on a WT α-gustducin background with clofibrate. […] Therefore, we tested these animals only for the 4 weeks without the recovery period.
For histological analyses of testicular structure in these mutant animals we used Bouin's or Davidson's fixatives and paraffin sections with H&E and PAS staining for fine tissue structure analysis and where possible for immunohistochemistry (see FIGS. 2 and 3). We used appropriate antibodies to determine the cell types (e.g., Tamoo et a; 2-2. Jostpcje, Ce;; bop;. 118(5):409-14). Measurement/staining of apoptotic cells was done with commercially available kits, such as TdT TUNEL enzyme (Roche). […] Histological, immunological and cellular analyses, and genetic determination of gene transmission, were also conducted using conventional techniques.
We observed spermatozoa after clofibrate treatment represent cells that were able to escape the inhibition of clofibric acid, most likely due to very fast clearance and fluctuating levels in rodents. This allows some tubular cells to complete the developmental cycle. Therefore, we measured sperm concentration as an indicator of efficiency of the pharmacological block and to be able to determine the concentration that results in effective sterility. We analyzed testicular morphology, sperm production, sperm motility and sperm function in in vitro fertilization after feeding these animals with the lipid lowering drug clofibrate. We tested an acute inhibition of sperm motility and function in vitro by incubating sperm from the engineered mice (mGus−/−, mT1R3−/−, hmT1R3+) in solutions containing clofibric acid or other T1R3 inhibitors. The concentration used was similar to the one used in human treatment with fibrates (˜0.03 g/kg weight, for 3 weeks). We tested sperm motility and function in vitro of the Gα-gustducin KO mice (missing only the Gα-gustducin gene (mGus−/−)) after blocking T1R3 receptors with the rodent specific inhibitor gurmarin (3 mg/ml).
We placed line 7c and WT males on a diet with clofibrate (300 mg/kg body weight), or a normal diet (no clofibrate), for 1 or 2 months. In the second month the males were housed with two young WT females to determine whether the males were fertile. The line 7c males on a regular diet were fertile. […] After 1 or 2 months of clofibrate treatment, the line 7c males had substantially less sperm (i.e., about one-quarter that of the WT males), whereas line 7c males on regular feed had the same amount of sperm as WT males.

SMILES: CCOC(=O)C(C)(C)Oc1ccc(Cl)cc1 [clofibrate]
- male fertility: sterile; also recorded: did not produce progeny; also recorded: functional sterility
